Laboratory results as given in patent publication US7425418B2, “Compounds that modulate processes associated with IgE production” (Rigel Pharmaceuticals, Inc., priority 2002, dated 2008).
Some results were stated once for a whole list of compounds, not compound by compound.

Tested on: IL-4 inducible germline ε promoter (A5T4 reporter cell line)
Assay: A5T4 reporter line screening assay: IL-4 induced germline ε promoter driving HBEGF2a/GFP reporter, peptide expressed retrovirally as BFP fusion, FACS
Assay type: cell-based, human
Details: mutants categorised relative to CL06wt
Description: Peptide CL06wt was identified by screening a retroviral library of random peptide 20-mers for the ability to inhibit IL-4 induced germline ε transcription using the HBEGF2a/diphtheria dual reporter phenotypic screening system described in WO 01/31232. To construct the random library, A5T4 reporter cells (described in more detail below) were infected with an infectious retroviral library of random peptide 20-mers (prepared as described in WO 97/27213; see also WO 01/34806 at page 39, line 36 through page 40, line 19). The retroviral vector used includes a gene encoding blue fluorescent protein (BFP) fused upstream of the region encoding the random peptide via a linker region encoding an α-helical peptide linker (expression fusion product is referred to as “BFP-peptide”). Expression of the BFP-peptide product is controlled by a promoter sensitive to the tetracyline-regulated transactivator such that expression of the BFP-peptide regulated by tetracycline (Tet) or doxycycline (Dox). […]
Following infection, the library was enriched for cells expressing peptides that inhibit IL-4 induced ε transcription as generally outlined in the top half of FIG. 3 and sorted by FACS into single cell clones. […] After 5 days, both populations were stimulated with IL-4 (final conc. 60 U/mL; PeptroTech, Inc.) and, after 3 more days, both populations were analyzed by FACS to measure BFP and GFP fluorescence. […]

| Substance | functional category based on reporter ratio |
| --- | --- |
| M S L C A A A H S Y A A (MSLCAAAHSYAA) [CL06SY1, dual alanine mutant of CL06wt] | LOF (A cell expressing a loss of function mutant has a reporter ratio of <1.11) |
| M S A A S Y A H S Y A A (MSAASYAHSYAA) [CL06LC, dual alanine mutant of CL06wt] | LOF (A cell expressing a loss of function mutant has a reporter ratio of <1.11) |
